No constants are given. Whether binding was seen depends on the method and setting. Binding seen in cells or lysates may run through a third protein. Some entries that bind do so weakly or less than the wild type.
What was measured:
Experiment in all cases: co-IP; GFP-tagged bait precipitated with mouse anti-GFP on Protein G Sepharose from yeast crude extracts (50 mM Tris/HCl pH 7.4, 300 mM NaCl, 10% glycerin, 1% Triton X-100), overnight at 4°C; HA-tagged prey detected by Western blot; control IP with unspecific IgG
[1] = target: Nce102 (S. cerevisiae) (UniProt Q12207)
[2] = target: Sur7 (S. cerevisiae) (UniProt P54003)
[3] = target: Sur7ΔC (S. cerevisiae) (UniProt P54003)
[4] = target: Sur7ΔN (S. cerevisiae) (UniProt P54003)

B1: Nce102 (protein, UniProt Q12207 1-173)
chain: MLALADNILRIINFLFLVISIGLISSLLNTQHRHSSRVNYCMFACAYGIFTDSLYGVFANFIEPLAWPLVLFTLDFLNFVFTFTAGTVLAVGIRAHSCNNSSYVDSNKITQGSGTRCRQAQAAVAFLYFSCAIFLAKTLMSVFNMISNGAFGSGSFSKRRRTGQVGVPTISQV
For B1, the binding [1] was “binds”.

B2: Sur7 (protein, UniProt P54003 1-302)
chain: MVKVWNIVLRLVVLLFLAGNTLLLILMIISGATDHYPVNRFYWVQGNTTGIPNAGDETRWTFWGACLQDKDGSDTCTSNLAPAYPISPVDNFNTHINVPHQFISKRDAFYYLTRFSFCFFWIALAFVGVSFILYVLTWCSKMLSEMVLILMSFGFVFNTAAVVLQTAASAMAKNAFHDDHRSAQLGASMMGMAWASVFLCIVEFILLVFWSVRARLASTYSIDNSRYRTSSRWNPFHREKEQATDPILTATGPEDMQQSASIVGPSSNANPVTATAATENQPKGINFFTIRKSHERPDDVSV
In the case of B2, the binding [2] is reported as “binds”.

B3: Sur7ΔC (domain or fragment, UniProt P54003 1-210)
chain: MVKVWNIVLRLVVLLFLAGNTLLLILMIISGATDHYPVNRFYWVQGNTTGIPNAGDETRWTFWGACLQDKDGSDTCTSNLAPAYPISPVDNFNTHINVPHQFISKRDAFYYLTRFSFCFFWIALAFVGVSFILYVLTWCSKMLSEMVLILMSFGFVFNTAAVVLQTAASAMAKNAFHDDHRSAQLGASMMGMAWASVFLCIVEFILLVFW
For B3, the binding [3] was “binds”.

B4: Sur7ΔN (domain or fragment, UniProt P54003 7-302)
chain: IVLRLVVLLFLAGNTLLLILMIISGATDHYPVNRFYWVQGNTTGIPNAGDETRWTFWGACLQDKDGSDTCTSNLAPAYPISPVDNFNTHINVPHQFISKRDAFYYLTRFSFCFFWIALAFVGVSFILYVLTWCSKMLSEMVLILMSFGFVFNTAAVVLQTAASAMAKNAFHDDHRSAQLGASMMGMAWASVFLCIVEFILLVFWSVRARLASTYSIDNSRYRTSSRWNPFHREKEQATDPILTATGPEDMQQSASIVGPSSNANPVTATAATENQPKGINFFTIRKSHERPDDVSV
With B4 the binding [4] was “binds”.
